From patent US20210155697A1 (UNITY BIOTECHNOLOGY, published 2021) come the findings set out here.

By UniProt entry, the sequences of proteins in these tests, tags left out. Where a name states a change or a piece, a line headed by the entry shows the natural chain unless it says otherwise.
UniProt Q02763: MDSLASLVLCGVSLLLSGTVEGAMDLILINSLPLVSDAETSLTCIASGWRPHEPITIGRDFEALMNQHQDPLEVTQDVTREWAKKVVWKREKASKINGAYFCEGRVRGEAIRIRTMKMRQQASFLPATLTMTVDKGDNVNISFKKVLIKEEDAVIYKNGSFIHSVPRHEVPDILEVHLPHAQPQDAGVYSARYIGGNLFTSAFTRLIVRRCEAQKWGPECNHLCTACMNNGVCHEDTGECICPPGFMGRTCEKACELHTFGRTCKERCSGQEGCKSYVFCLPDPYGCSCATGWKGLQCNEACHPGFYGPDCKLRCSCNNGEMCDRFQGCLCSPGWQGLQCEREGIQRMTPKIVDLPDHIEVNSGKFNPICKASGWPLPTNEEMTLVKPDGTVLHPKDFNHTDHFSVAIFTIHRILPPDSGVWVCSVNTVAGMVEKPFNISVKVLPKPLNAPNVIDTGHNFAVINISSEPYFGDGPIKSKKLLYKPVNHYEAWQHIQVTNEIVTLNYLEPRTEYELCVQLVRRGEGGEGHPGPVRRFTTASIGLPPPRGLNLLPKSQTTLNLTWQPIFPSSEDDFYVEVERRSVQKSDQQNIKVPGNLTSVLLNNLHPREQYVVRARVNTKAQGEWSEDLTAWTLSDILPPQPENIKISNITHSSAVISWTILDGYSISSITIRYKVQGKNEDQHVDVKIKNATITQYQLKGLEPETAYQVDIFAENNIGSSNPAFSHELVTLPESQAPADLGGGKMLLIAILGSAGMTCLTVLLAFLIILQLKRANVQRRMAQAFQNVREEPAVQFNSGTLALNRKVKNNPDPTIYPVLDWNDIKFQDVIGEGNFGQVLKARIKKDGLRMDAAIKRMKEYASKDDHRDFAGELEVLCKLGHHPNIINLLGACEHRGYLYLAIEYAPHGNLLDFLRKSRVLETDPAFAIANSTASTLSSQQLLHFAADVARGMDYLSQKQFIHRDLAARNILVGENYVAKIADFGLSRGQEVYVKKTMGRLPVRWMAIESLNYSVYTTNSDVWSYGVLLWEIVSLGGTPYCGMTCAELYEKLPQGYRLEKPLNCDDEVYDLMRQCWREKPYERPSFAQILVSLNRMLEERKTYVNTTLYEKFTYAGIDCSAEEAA

B1: human anti-Tie2 antibody #1 (antibody, V domains shown)
VH: DVQLVESGGGVVRPGESLRLSCAASGFTFSSYAMSWVRQAPGEGLEWVARISDYTIYYADSVKGRFTISRDNSKNTLYLQMNSLRAEDTAVYYCAKSGPKSGKYWNNFFDSWGLGTLVTVSS
VL: EIVLTQSPGTLSVSPGERATLTCRASQSVKTDLAWYQQKPGQAPRLLIYGATTRATGIPARFSGSGSGTEFTLTITNLQSEDFAVYYCQQYYVWPPLTFGGGTKVEIK
notes: also called Ab #1; Antibody Clone # 1
B2: human anti-Tie2 antibody #2 (antibody, V domains shown)
VH: DVQLVESGGGVVRPGESLRLSCAASGFSFINFAMTWVRQAPGEGPEWVSLISDDGRGNRPYYADSVKGRFTISRDNSKNILYLQMNSLRVEDTATYYCAKVSWDVFFDYWGLGTVVTVSS
VL: EIVLTQSPGTVSLSPGERVTLSCRASQPIDVYLAWYQQKPGQAPRLLIYGANRRAIDIPDRFSGSGSGTEFTLTINSLQNEDFAVYFCQQYMTWPPVTFGGGTKVEIK
notes: also called Ab #2; Antibody Clone # 2
B3: human anti-Tie2 antibody #3 (antibody, V domains shown)
VH: DVQLVESGGGVVRPGESLRLSCTASGFTFDSYGMSWVRQAPGKGLEWVSSINVGDNTYYADSVRGRFIISRDSSRNTLYLQMNSLTAEDTAVYYCANWNSFFDYWGLGTLVTVSS
VL: EIVLTQSPGTLSLSPGEIATLSCRASQNVRSDLAWYQQKPGQAPRLLIYDASNRATGIPDRFSGSGSGTDFTLTISSLQSEDFAVYYCQQYSNWPPLTFGGGTKVEIK
notes: also called Ab #3; Antibody Clone # 3

Results are given in words; binding and its absence hold for the method and conditions named. Some results given as binding are weak or reduced against the parent protein; the word gives no strength.

The assay deals with recombinant his-tagged Tie2 ECD (Homo sapiens (Human)) (UniProt Q02763). Nature of the assay: BLI, his-tagged Tie2 ECD (100 nM) on Ni-NTA biosensor, antibody at 100 nM. In general terms: Biolayer interferometry detects binding as a change in optical thickness at a sensor tip.
B1: the binding entry was “binds”.

As to B2, the binding result is “binds”.

B3: the binding entry was “binds”.
